This assay addresses T1, Lon^TRAP-Twin-Strep-tag (Lon S674A active-site mutant) (C. crescentus) (UniProt B8GX12).
T1 sequence: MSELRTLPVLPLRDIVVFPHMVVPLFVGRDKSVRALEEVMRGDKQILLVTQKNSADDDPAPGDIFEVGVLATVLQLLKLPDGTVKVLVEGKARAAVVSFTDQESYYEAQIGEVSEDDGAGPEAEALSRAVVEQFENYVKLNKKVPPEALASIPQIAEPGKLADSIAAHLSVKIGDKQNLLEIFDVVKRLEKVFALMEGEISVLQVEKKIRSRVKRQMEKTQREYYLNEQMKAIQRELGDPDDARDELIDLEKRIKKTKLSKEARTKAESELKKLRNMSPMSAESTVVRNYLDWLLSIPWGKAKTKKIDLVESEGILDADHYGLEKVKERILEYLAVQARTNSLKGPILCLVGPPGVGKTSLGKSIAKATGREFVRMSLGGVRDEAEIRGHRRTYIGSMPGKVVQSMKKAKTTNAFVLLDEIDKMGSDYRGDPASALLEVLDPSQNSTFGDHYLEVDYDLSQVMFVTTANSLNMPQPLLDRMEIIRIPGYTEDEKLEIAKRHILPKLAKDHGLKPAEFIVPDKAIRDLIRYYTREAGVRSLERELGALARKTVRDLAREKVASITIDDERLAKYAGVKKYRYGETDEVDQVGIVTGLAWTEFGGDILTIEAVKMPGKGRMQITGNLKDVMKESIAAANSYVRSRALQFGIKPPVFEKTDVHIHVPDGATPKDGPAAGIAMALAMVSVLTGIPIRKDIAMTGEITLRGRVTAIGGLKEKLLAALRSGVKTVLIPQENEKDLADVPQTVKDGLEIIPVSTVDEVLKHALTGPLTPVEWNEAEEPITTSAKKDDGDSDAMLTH
In words: affinity purification with mass spectrometry; Twin-Strep-tagged Lon^TRAP (bait) purified on Strep-TactinXT from lysates of Δlon C. crescentus after 2 h xylose; elution fractions TMT-labelled and analysed by LC-MS; compared with Lon^WT and a no-Lon control; two replicates.

Here are results for one molecule from article PMC10665427.

Results are given in words; binding and its absence hold for the method and conditions named. In cells and extracts the contact can be indirect. Here binding means that the protein was enriched with, or labelled near, the bait; the list need not be complete. Where a sequence is shown, tags or fusion partners need not be part of it.

B1: DnaA (protein, UniProt P0CAU4 1-490)
chain: MTMKGGVASQDFSAAIATACEPAANVWSKVCVALKRELGDAAFGSWIAPAMLREAATGDVVLVTSTGIARDWIRRSAWRRIGELWAAHDATGRRIDLKSRLEFEAAAGAYVEATPKAVAAEPIEIVLPVSTDAPTVVAPSAKSPRTQGLQERFTFETFVPGPANEFAHAVARRIANWADGHFNPVLFHGPYGFGKTHLLNALAWEAMRNAPEKRVVYLTAERFLSTFVRAVMDRQTAAFKEELRAADLLIIDDVHFIAGKQSTQEELFHTLTALVGEGGRVVFSADRPPSAMTEMDAHLRSHLSAGLVCGLEPADRNLRLGILERKIQTLGAAHGFEPSIRPEVMQFLADRFTDSVRELEGALNTLSARAGEGLSRMTLDEVQAILRPHLRSGEKRITIDDIQKATAEHYGMKQADLLSERRNRAVARPRQAAMWLAKQLTTRSLPDIGRRFGGRDHTTVLHAVRRIEALRAEDSALSHDLETLTRKLRG
In the case of B1, the binding entry was “binds”.
